# Library screen at single concentrations

Sequences of proteins named here, by UniProt entry; tags and fusion partners are left off. Residues count along the entry.
UniProt Q4DA54, 1-478: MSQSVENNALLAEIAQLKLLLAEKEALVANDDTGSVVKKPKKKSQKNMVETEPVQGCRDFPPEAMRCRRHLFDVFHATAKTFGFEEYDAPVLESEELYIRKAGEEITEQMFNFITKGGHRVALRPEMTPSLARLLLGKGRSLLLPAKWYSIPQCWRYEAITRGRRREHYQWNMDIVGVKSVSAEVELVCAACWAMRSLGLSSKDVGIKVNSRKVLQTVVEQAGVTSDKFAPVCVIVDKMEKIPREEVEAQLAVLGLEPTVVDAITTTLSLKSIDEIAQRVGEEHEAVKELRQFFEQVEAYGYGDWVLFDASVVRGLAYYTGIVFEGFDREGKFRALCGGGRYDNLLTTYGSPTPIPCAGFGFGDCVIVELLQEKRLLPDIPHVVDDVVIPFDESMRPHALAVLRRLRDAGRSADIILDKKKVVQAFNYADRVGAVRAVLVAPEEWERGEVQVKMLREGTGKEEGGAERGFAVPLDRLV

Data taken from ChEMBL document CHEMBL3988442, “University of Dundee, Small-Polar-MMV Screening Library” (2021).

Results are given as percent effect. How 0% and 100% were set is not recorded. Most values in the screen are low, and negative values occur. Compounds were drawn at random from those tested, without regard to their results.

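Histidine-tRNA ligase, Trypanosoma cruzi CL Brener (UniProt Q4DA54). Enzyme assay of histidyl-tRNA synthetase; the read-out is not stated. Concentration: 30 µM. Direction is inferred from retests: higher values go with stronger inhibition. Size under these conditions: about 69,000 compounds, about 31 of them at 50% or above in at least one test.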

* CC(C)(C)c1cnc(CN(Cc2cccnc2)CC2CCCO2)o1 (stereo not given) : 14.63%
* CCn1nnc2c1C(COCCN(C)C)CN(S(=O)(=O)CC)C2 (stereo not given) : 7.527%
* COCC1CN(S(=O)(=O)N(C)C)Cc2cnn(CC3CCCC3)c21 (stereo not given) : 1.493%
* Cc1nc2c(c(C)c1CC(=O)Nc1ccc(Cl)cc1)c(=O)[nH]n2C : 0.4149%
* CCCc1n[nH]cc1C(=O)N1CCCC(c2nccn2CC2CC2)C1 (stereo not given) : 5.941%
* C[C@@H]1CN(CCC(=O)NCc2ccccc2Cl)C[C@@]1(O)C1CC1 : 2.128%
* Cc1cnc(N)c(C(=O)C2CCN(C(=O)c3ccccc3F)CC2)c1 : 1.639%
* Cc1ccc(S(=O)(=O)NCC(C)(C)N)c(F)c1 : 7.921%
* COCc1ccc(CN[C@H]2C[C@@H](Cc3cc(CCO)on3)C2(C)C)o1 : 3.261%
* CN(C)c1nccc(C2CN(S(C)(=O)=O)C2)n1 : 0.3831%
* Cc1oc(-c2ccsc2)nc1CC(=O)NCC(=O)Nc1cn[nH]c1 : 5.83%
* O=S(=O)(c1ccccc1)N1C[C@@H]2CCCCN(Cc3cccs3)[C@@H]2C1 : 7.752%
* O=C(Cn1ncc(N2CCCC2)cc1=O)Nc1ccc2nccnc2c1 : 1.754%
* Cc1c(C(=O)NS(=O)(=O)c2ccsc2)cnn1CC(C)C : 0.4878%
* Cc1cc(C)n(C2CN(C(=O)c3cn4ccsc4n3)C2)n1 : 4.938%
* COc1cccc(N2CC3(CCN(c4ccc(C)nn4)C3)CC2=O)c1 (stereo not given) : 3.226%
* Cc1cc(O)c(OCC(=O)Nc2nc3c(s2)CCCCC3)cn1 : 0%
* Nc1ncc(-c2ccc(C(F)(F)F)cc2)c(C2CCCNC2)n1 (stereo not given) : 2.571%
* Cc1c(C(=O)N2CC(Cc3nccc4ccn(C)c34)C2)cnn1C : 4.494%
* Cc1cc(-c2cnc(C)nc2CN(C)C(=O)c2cc(C3CC3)on2)on1 : 6.084%
* CC(C)C(=O)N1CCCC(c2cc(C(F)F)n3ncnc3n2)C1 (stereo not given) : 1.622%
* Cc1cc(C)n(CC2CCCN2C(=O)c2cccc3c2OCO3)n1 (stereo not given) : 7.289%
* CCn1cc(CN2CCCN(C(=O)c3ccc(C)o3)CC2)cn1 : 4.373%
* Cc1noc(C)c1CC(=O)NCCN1CCN(S(C)(=O)=O)CC1 : 4.865%
* COc1cc(OC)c2c(=O)oc(CC(O)CC(C)=O)cc2c1 (stereo not given) : 3.96%
* COC(=O)c1ccc(F)c(S(=O)(=O)Nc2ccc(C(N)=O)cc2)c1 : 6.863%
* CCOC(=O)NC(CNC(=O)c1ncccn1)CC(C)C (stereo not given) : -2.542%
* CCN1CC2(CC1=O)CN(Cc1cnn(C)c1)CCN(C(=O)N(C)C)C2 (stereo not given) : 3.659%
* CC(NC(=O)NCCCc1n[nH]c(N)c1C#N)c1ccccc1 (stereo not given) : 4.511%
* Cc1cccc(NC(=O)N2CCC(CO)(Nc3ccccc3)CC2)c1 : 8.247%
* Cc1[nH]ncc1CCCNC(=O)N1CCC(CC(N)=O)CC1 : 8.247%
* O=S(=O)(c1ccc(F)cc1)N1CC[C@H]2[C@H]1CCN2c1ncccn1 : 4.908%
* CC1=Nc2c(c(=O)[nH]n2C(C)C)C(c2ccc3ncccc3c2)S1 (stereo not given) : 1.754%
* CN(C)S(=O)(=O)N1C[C@@H]2CC[C@H](C1)N(Cc1ccc3c(c1)OCCO3)C2 : -1.02%
* COc1ccc(CNC(=O)Cn2ccc3sccc3c2=O)cc1 : -0.9901%
* Cc1nc(N(C)C)cc(C2(C)CCCNC2)n1 (stereo not given) : 1.13%
* Cc1nn(C)c(N2CCOCC2)c1CNCC1CCS(=O)(=O)C1 (stereo not given) : 6.494%
* CCc1cnc(C)nc1NC1CC(=O)N(CC2CCCCC2)C1 (stereo not given) : 6.077%
* NC(=O)c1cc(C2CCCN(C(=O)CCc3ccsc3)C2)n[nH]1 (stereo not given) : 4.58%
* Fc1cnc(N2CC[C@@H](N3CCOCC3)[C@@H]2Cc2cccnc2)nc1 : 0%
* O=C1CCC(C(=O)NCCOc2ccccc2-c2ccccc2)CN1 (stereo not given) : 8.621%
* CCc1ccccc1OCCN(C)C(=O)CCN1CCCO1 : 10.3%
* O=C(NC1CCCC1)c1nc(COc2ccc3c(c2)OCO3)no1 : -1.98%
* Cc1nc2c(c(NCC3Cc4ccccc4CN3C)n1)CCNCC2 (stereo not given) : -3.911%
* CCOC1CC2(CCN(c3cnccn3)CC2)c2ccccc21 (stereo not given) : 12.27%
* CC(c1ccc(F)cc1F)N1CCN(CCC(=O)O)CC1 (stereo not given) : 4.348%

The first 5 entries again:

| SMILES | Percent Effect |
|---|---|
| `CC(C)(C)c1cnc(CN(Cc2cccnc2)CC2CCCO2)o1` (stereo not given) | 14.63 |
| `CCn1nnc2c1C(COCCN(C)C)CN(S(=O)(=O)CC)C2` (stereo not given) | 7.527 |
| `COCC1CN(S(=O)(=O)N(C)C)Cc2cnn(CC3CCCC3)c21` (stereo not given) | 1.493 |
| `Cc1nc2c(c(C)c1CC(=O)Nc1ccc(Cl)cc1)c(=O)[nH]n2C` | 0.4149 |
| `CCCc1n[nH]cc1C(=O)N1CCCC(c2nccn2CC2CC2)C1` (stereo not given) | 5.941 |